# Counter-ions that a name gives are not always drawn. This is one part of the list. Hit calls seldom repeat between salt and free forms of one compound.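 Kinases were expressed as nanoluciferase fusions in K562 cells and luminescence was read every 4 h between 2 and 18 h as percent of control, DMSO set to 100% and a positive control to 0%. A time point counts as decreased when the signal drops significantly (2 sigma). The hit call is the authors' own, does not follow from the count of time points alone, and its rule is not shown.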
# Chains of the proteins cited; added tags and fusions are not shown. Lines headed by an entry give the natural chain unless they say otherwise; changes in a name come on top.
# UniProt Q15303, whole entry R711C: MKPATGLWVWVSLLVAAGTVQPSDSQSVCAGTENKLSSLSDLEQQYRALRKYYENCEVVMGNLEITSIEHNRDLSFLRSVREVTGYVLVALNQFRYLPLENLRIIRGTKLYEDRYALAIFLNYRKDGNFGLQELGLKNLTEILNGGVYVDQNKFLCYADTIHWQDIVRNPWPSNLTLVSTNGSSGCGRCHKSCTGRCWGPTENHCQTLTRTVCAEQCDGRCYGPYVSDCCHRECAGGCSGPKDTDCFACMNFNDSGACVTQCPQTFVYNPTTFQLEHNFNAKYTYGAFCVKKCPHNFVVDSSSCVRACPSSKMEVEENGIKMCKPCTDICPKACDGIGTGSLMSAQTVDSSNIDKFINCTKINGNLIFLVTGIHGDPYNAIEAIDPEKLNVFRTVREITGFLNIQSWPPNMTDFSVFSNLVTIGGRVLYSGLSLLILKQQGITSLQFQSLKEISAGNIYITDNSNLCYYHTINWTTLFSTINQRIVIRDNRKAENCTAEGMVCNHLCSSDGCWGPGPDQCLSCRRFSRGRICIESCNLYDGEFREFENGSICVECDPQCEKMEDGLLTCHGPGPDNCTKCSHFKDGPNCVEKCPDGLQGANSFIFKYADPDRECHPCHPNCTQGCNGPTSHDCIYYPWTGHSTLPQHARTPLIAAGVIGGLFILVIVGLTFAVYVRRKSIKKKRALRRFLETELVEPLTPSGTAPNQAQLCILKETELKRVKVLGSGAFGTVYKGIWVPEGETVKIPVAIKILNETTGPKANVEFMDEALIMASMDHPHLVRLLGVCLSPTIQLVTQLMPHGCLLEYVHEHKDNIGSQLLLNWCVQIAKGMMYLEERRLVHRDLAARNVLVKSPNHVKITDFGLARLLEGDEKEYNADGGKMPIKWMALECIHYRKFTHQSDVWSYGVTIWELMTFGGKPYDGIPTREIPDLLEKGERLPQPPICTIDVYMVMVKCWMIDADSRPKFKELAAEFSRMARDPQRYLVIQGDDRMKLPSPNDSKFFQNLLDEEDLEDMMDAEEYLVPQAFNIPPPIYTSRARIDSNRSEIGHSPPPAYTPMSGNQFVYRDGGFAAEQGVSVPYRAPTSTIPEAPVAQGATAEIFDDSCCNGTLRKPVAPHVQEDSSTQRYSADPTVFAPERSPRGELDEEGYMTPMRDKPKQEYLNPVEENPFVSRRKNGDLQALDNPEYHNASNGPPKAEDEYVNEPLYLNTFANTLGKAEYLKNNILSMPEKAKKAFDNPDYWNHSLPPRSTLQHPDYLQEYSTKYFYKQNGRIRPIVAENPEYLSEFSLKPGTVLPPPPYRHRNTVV
# UniProt P21802, whole entry, looked up: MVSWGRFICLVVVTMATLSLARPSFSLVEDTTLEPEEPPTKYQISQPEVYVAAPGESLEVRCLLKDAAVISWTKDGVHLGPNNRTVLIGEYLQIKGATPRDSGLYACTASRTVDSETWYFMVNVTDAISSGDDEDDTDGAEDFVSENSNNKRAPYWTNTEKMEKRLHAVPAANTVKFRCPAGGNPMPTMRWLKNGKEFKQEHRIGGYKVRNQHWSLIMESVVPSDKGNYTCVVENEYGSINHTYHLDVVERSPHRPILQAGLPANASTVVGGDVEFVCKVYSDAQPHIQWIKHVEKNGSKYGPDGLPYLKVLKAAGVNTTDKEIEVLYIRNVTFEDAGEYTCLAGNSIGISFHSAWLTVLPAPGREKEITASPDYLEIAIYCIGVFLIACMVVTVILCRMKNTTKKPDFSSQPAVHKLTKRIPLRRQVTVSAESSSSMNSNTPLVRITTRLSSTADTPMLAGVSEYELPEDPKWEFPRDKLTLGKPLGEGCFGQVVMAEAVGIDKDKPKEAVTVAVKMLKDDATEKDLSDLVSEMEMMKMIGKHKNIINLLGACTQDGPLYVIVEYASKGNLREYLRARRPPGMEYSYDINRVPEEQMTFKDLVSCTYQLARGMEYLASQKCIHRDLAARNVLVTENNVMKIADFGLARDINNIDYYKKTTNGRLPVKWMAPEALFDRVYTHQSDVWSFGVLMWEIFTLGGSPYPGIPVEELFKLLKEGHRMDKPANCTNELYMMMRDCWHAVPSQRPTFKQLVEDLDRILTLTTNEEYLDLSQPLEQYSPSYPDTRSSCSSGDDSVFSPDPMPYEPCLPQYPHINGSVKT
# UniProt P22607, whole entry, looked up: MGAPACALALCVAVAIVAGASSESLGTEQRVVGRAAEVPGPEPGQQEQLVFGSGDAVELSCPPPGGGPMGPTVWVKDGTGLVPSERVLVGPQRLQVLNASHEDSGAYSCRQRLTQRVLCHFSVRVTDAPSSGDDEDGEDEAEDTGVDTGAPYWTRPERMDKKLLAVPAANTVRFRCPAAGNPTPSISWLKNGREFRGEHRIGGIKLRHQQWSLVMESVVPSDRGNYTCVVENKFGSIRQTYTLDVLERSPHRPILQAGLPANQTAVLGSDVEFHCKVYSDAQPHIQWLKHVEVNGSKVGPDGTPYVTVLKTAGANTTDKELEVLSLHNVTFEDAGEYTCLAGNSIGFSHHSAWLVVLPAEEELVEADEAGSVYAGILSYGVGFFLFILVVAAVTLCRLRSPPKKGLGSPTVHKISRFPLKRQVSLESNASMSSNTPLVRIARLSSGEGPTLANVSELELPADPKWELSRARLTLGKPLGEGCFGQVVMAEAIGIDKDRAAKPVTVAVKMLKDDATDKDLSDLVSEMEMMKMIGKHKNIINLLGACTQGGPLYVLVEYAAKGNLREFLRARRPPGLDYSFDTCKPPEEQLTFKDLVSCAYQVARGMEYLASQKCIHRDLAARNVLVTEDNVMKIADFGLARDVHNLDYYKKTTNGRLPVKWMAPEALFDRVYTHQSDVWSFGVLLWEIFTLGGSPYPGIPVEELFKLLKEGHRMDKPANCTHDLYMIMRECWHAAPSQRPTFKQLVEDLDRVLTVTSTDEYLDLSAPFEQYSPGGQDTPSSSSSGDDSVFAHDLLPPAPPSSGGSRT
# UniProt P14616: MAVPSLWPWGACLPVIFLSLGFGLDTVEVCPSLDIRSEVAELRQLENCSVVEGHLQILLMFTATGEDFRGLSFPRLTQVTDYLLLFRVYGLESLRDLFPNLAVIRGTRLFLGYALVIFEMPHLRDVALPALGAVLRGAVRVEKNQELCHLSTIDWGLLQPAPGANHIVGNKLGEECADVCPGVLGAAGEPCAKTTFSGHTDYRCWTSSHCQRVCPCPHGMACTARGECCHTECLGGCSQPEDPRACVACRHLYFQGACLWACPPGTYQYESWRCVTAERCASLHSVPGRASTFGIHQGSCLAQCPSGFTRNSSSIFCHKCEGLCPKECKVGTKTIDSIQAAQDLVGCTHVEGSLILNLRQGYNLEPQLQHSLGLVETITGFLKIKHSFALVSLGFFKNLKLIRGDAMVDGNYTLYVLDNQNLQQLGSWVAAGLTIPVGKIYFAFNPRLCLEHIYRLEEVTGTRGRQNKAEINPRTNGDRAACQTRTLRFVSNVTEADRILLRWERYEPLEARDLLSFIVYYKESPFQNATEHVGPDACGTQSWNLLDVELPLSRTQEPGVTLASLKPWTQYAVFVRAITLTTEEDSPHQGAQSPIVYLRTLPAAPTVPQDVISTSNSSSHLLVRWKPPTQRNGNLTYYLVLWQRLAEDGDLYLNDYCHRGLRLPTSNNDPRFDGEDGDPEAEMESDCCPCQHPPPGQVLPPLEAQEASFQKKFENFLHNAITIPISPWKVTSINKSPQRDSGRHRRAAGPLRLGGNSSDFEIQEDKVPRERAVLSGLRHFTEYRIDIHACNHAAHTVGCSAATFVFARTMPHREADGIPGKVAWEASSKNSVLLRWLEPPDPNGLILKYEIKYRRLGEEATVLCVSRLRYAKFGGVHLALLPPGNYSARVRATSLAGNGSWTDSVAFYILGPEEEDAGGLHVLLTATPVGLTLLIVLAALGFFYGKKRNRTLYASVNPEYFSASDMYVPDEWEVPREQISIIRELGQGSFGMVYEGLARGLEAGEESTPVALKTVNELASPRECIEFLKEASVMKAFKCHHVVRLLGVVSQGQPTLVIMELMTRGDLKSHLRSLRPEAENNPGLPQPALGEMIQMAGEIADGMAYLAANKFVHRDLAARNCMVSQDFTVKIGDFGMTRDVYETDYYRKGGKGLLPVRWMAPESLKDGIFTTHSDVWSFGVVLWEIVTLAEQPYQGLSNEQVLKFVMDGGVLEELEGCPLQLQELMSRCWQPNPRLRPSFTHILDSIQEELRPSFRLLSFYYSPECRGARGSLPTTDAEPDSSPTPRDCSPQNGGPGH
# UniProt P23458: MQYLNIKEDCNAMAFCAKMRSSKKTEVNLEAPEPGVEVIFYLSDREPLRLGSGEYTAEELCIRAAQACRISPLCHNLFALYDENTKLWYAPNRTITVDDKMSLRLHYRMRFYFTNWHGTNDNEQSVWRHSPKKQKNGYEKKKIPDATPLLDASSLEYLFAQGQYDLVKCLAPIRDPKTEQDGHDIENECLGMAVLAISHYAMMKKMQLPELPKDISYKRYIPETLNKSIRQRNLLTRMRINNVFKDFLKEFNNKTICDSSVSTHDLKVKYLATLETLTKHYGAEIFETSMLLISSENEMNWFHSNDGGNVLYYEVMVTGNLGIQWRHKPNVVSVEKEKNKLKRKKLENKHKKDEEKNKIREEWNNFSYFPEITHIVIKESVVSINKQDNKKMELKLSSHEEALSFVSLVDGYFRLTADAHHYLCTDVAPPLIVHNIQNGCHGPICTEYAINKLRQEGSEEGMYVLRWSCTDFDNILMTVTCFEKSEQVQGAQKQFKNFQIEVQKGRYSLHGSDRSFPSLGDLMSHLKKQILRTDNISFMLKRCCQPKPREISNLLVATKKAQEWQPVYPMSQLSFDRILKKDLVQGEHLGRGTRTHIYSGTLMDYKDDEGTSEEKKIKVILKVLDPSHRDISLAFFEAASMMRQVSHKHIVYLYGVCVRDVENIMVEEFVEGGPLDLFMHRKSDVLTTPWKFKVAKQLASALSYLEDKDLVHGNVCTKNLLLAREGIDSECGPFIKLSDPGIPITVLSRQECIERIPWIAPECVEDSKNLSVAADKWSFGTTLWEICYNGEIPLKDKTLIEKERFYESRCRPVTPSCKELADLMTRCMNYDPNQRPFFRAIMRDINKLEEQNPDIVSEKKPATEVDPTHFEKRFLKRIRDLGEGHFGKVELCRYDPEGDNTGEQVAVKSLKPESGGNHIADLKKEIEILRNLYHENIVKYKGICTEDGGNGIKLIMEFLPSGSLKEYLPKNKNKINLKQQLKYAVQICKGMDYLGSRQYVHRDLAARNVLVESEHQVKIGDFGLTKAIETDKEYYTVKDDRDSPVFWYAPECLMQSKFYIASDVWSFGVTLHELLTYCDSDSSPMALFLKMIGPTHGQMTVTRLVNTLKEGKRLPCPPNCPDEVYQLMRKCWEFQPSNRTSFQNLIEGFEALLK
# UniProt P06239: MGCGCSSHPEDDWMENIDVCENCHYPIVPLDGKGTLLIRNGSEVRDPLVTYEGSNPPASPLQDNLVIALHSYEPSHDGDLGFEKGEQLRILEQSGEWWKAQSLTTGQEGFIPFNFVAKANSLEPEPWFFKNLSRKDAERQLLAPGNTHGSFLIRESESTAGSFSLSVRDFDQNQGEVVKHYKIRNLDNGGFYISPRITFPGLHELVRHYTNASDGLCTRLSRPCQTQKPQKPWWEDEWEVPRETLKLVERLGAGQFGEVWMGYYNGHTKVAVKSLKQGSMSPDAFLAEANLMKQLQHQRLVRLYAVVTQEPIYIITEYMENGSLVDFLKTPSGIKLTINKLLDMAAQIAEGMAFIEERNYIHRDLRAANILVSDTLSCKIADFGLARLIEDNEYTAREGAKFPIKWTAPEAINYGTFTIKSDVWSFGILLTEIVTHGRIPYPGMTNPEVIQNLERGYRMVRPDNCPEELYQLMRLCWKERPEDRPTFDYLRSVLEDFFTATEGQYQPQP
# UniProt P53667: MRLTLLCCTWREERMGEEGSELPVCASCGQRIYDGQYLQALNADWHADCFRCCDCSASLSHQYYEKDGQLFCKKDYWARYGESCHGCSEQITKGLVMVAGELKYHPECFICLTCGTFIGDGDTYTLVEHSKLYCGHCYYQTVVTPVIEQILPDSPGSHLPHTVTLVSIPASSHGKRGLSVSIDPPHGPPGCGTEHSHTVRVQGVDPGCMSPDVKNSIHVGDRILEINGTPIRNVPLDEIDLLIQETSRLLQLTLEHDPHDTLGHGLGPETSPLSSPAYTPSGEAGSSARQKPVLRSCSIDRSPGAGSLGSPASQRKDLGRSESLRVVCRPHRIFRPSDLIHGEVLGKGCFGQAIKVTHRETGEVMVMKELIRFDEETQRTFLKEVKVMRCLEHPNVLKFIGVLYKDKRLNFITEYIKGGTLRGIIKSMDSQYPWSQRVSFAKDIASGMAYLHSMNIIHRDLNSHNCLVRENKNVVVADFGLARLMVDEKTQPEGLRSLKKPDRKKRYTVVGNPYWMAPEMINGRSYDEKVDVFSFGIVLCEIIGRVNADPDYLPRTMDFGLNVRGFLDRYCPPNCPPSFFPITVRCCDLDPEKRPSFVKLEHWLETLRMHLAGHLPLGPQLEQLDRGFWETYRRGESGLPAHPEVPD
# How the values were obtained:
# Test in all cases: number of time points (of 5) at which kinase-Nluc abundance scored as decreased, DMSO-normalised (count); higher = more persistent destabilization
# Conditions in all cases: K562; 2-18 h
# EGFR_L861Q = EGFR_L861Q (UniProt P00533)
# EGFR_T790M = EGFR_T790M (UniProt P00533)
# EPHA2 = EPHA2 (UniProt P29317)
# ERBB3 = ERBB3 (UniProt P21860)
# [1] = target: ERBB4_R711C (clone: ERBB4_mut) (UniProt Q15303)
# ERN1 = ERN1 (UniProt O75460)
# FGFR1 = FGFR1 (UniProt P11362)
# FGFR2 = FGFR2 (UniProt P21802)
# FGFR3 = FGFR3 (UniProt P22607)
# FGR = FGR (UniProt P09769)
# FYN = FYN (UniProt P06241)
# GSK3A = GSK3A (UniProt P49840)
# HER2 = HER2 (UniProt P04626)
# INSRR = INSRR (UniProt P14616)
# IRAK3 = IRAK3 (UniProt Q9Y616)
# JAK1 = JAK1 (UniProt P23458)
# LCK = LCK (UniProt P06239)
# LIMK1 = LIMK1 (UniProt P53667)
# LIMK2 = LIMK2 (UniProt P53671)
# FLT3 = FLT3 (UniProt P36888)
SMILES,number of time points (EGFR_L861Q),number of time points (EGFR_T790M),number of time points (EPHA2),number of time points (ERBB3),number of time points [1],number of time points (ERN1),number of time points (FGFR1),number of time points (FGFR2),number of time points (FGFR3),number of time points (FGR),number of time points (FYN),number of time points (GSK3A),number of time points (HER2),number of time points (INSRR),number of time points (IRAK3),number of time points (JAK1),number of time points (LCK),number of time points (LIMK1),number of time points (LIMK2),number of time points (FLT3)
CC(C)(C)c1cc(NC(=O)Nc2ccc(-c3cn4c(n3)sc3cc(OCCN5CCOCC5)ccc34)cc2)no1 [Quizartinib] (10 µM),0,0,0,0,0,0,4,3,0,0,3,0,0,0,0,0,0,2,2,
CC(C)(C)c1nc2c3cc[nH]c(=O)c3c3cc(F)ccc3c2[nH]1 [Pyridone 6] (10 µM),0,0,0,0,0,0,0,0,0,0,0,0,0,0,0,0,,0,0,0
C=CC(=O)N1CCC[C@@H](n2nc(-c3ccc(Oc4ccccc4)cc3)c(C(N)=O)c2N)C1 [Btk inhibitor 2] (10 µM),0,0,0,0,0,0,0,0,0,0,0,0,0,0,0,0,0,0,0,0
COc1cc2ncnc(Nc3cccc(O)c3)c2cc1OC (10 µM),2,1,0,3,3,2,2,3,1,0,2,1,2,3,3,3,0,4,1,4
COc1cc2ncnc(Nc3cccc(Cl)c3F)c2cc1OC(=O)N1CCN(C)C[C@H]1C [Zorifertinib] (10 µM),0,0,0,0,0,0,3,0,0,0,0,3,0,0,0,0,0,0,0,0
COc1cc(F)cc([C@@H](CO)NC(=O)[C@@H](C)N2Cc3ccc(-c4nc(NC5CCOCC5)ncc4Cl)cc3C2=O)c1 [ERK1/2 inhibitor 2] (10 µM),0,0,0,2,0,0,0,0,0,0,0,0,0,0,0,0,0,0,0,0
CC#CC(=O)N[C@H]1CCCN(c2c(F)cc(C(N)=O)c3[nH]c(C)c(C)c23)C1 [Branebrutinib] (10 µM),0,0,0,0,0,0,0,0,0,0,0,0,0,0,0,0,0,0,0,0
CCN1C(=O)N(c2c(F)c(OC)cc(OC)c2F)Cc2cnc3[nH]c(CN4CCOCC4)cc3c21 [Pemigatinib] (10 µM),0,0,0,0,0,0,,,0,0,0,0,0,0,0,0,0,0,0,0
O=C(c1ccc(-c2ccc(Cl)cc2)o1)N(Cc1ccccn1)c1ccc(N2CCNCC2)cc1 [MK2-IN-1 (hydrochloride)] (10 µM),0,0,0,0,,0,0,3,0,0,0,0,0,0,0,3,0,1,0,0
Cc1ccc(S(=O)(=O)Nc2nc3ccccc3nc2Nc2ccc3nsnc3c2)cc1 [Pilaralisib analogue] (10 µM),0,,0,5,5,1,0,0,0,0,0,0,1,4,4,4,1,,0,5
O=C(/C=C/c1ccc(O)c(O)c1)c1ccc(O)cc1O [Butein] (10 µM),2,0,0,3,3,0,,3,0,0,4,0,0,4,2,3,0,2,3,3
C[C@]1(O)C[C@@H](c2nc(-c3ccc4ccc(-c5ccccc5)nc4c3)c3c(N)nccn32)C1 [Linsitinib] (2.5 µM),,,0,0,0,0,0,0,0,0,0,0,0,0,0,0,0,0,0,0
CNc1nc(-c2ccc3c(N)n[nH]c3c2)cc(N2C[C@@H](C(=O)NC3CCCCC3)CC[C@H]2C)n1 (10 µM),,,0,0,0,0,0,0,0,0,0,0,0,0,0,0,0,0,0,0
CNC(=O)c1cc(Oc2ccc(NC(=O)Nc3cc(C(C)(C)C)nn3-c3ccc4ncccc4c3)c(F)c2)ccn1 [Rebastinib] (2.5 µM),0,2,0,4,4,,4,4,2,0,4,0,2,3,3,3,0,5,3,3
CC(C)(C)S(=O)(=O)c1cc2c(Nc3ccc4scnc4c3)ncnc2cc1OCCO (2.5 µM),0,0,0,0,0,,0,0,0,0,0,0,0,0,0,0,0,0,0,0
N#Cc1ccc2[nH]c(O)c(-c3ccc(CN4CCOCC4)cn3)c2c1 (10 µM),,,0,0,0,0,0,0,0,0,0,0,0,0,0,0,0,0,0,0
"O=c1cc(-c2ccccc2)oc2c(O)c(O)ccc12 [7,8-Dihydroxyflavone] (10 µM)",0,0,0,0,0,,0,0,0,0,0,0,0,0,0,0,0,0,0,0
Cc1cc(C(=O)Nc2cccc(C(=O)Nc3cccc(C(F)(F)F)c3)c2)on1 (10 µM),0,,0,0,0,0,0,0,0,0,0,0,0,0,0,0,0,,,0
C/C=C(/C)C(=O)O[C@H]1Cc2cc3ccc(=O)oc3cc2OC1(C)C [Decursinol angelate] (10 µM),0,,0,0,0,0,0,0,0,0,0,0,0,0,0,0,0,0,0,0
O=c1c(O)c(-c2ccc(O)c(O)c2)oc2cc(O)cc(O)c12 [Quercetin (dihydrate)] (10 µM),,,0,0,0,0,0,0,0,0,0,0,0,0,0,0,0,0,0,0
CCn1cc(-c2ccnc3[nH]c(-c4cccc(CN(C)C)c4)cc23)c(-c2ccc(NC(=O)N(C)C)cc2)n1 (2.5 µM),0,0,0,0,0,0,,0,0,0,0,0,0,0,0,0,0,0,0,0
CCCCOc1c(C(=O)c2c(F)cc(C)cc2F)c[nH]c2nncc1-2 (10 µM),0,,0,0,0,0,0,0,0,0,0,0,0,0,0,0,0,0,0,0
C=CC(=O)N1CC[C@H](n2nc(C#Cc3cc(OC)cc(OC)c3)c3c(N)ncnc32)C1 [Futibatinib] (10 µM),0,0,0,0,0,0,0,,0,0,0,0,0,0,0,0,0,0,0,0
CN1CCN(C(=O)c2ccc(-c3ccc4c(C=O)c(O)ccc4c3)s2)CC1 (2.5 µM),0,0,0,0,0,,0,0,0,0,0,0,0,0,0,0,0,0,0,0
Cc1ccc2c(Nc3cccc(OC(F)(F)F)c3)nccc2c1Nc1ncccc1-c1ncnc2[nH]cnc12 (10 µM),0,0,0,0,0,0,,0,0,0,0,0,0,0,0,0,0,0,0,0

# Retrieved one by one from above, 2 records:
SMILES,number of time points (EGFR_L861Q),number of time points (EGFR_T790M),number of time points (EPHA2),number of time points (ERBB3),number of time points [1],number of time points (ERN1),number of time points (FGFR1),number of time points (FGFR2),number of time points (FGFR3),number of time points (FGR),number of time points (FYN),number of time points (GSK3A),number of time points (HER2),number of time points (INSRR),number of time points (IRAK3),number of time points (JAK1),number of time points (LCK),number of time points (LIMK1),number of time points (LIMK2),number of time points (FLT3)
CC#CC(=O)N[C@H]1CCCN(c2c(F)cc(C(N)=O)c3[nH]c(C)c(C)c23)C1 [Branebrutinib] (10 µM),0,0,0,0,0,0,0,0,0,0,0,0,0,0,0,0,0,0,0,0
CC(C)(C)c1cc(NC(=O)Nc2ccc(-c3cn4c(n3)sc3cc(OCCN5CCOCC5)ccc34)cc2)no1 [Quizartinib] (10 µM),0,0,0,0,0,0,4,3,0,0,3,0,0,0,0,0,0,2,2,

# From the supplement of paper PMC12823440, “Inhibitors supercharge kinase turnover through native proteolytic circuits” (Nature, 2025)
